# Test results published in the supplement of paper PMC3334620.
# In all, about 33,000 sequences were measured (“E-score (-0.5 to 0.5)”: median about -0.0059, highest 2% from about 0.26 on). Some of the results follow.
# Molecular target: T1, Cin5 (UniProt P40917)
# T1 sequence: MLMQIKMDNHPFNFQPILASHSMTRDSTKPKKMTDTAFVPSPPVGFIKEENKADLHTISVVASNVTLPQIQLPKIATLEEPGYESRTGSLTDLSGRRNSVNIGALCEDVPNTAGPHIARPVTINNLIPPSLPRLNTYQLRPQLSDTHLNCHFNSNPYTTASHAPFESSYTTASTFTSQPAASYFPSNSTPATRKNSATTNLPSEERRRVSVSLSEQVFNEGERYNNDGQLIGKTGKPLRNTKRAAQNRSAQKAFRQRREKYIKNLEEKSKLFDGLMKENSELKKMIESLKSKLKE
# Experiment: PBM E-score (8-mer binding enrichment) (E-score (-0.5 to 0.5)); higher = stronger / more preferred TF binding
# Conditions: protein concentration: 100 nM; construct: GST-full length
# Procedure, shortened: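 PURExpress in vitro transcription/translation supplied GST-tagged yeast transcription factors, either full-length or DNA-binding domain. Applied at about 100-200 nM to universal all-10-mer Agilent arrays double-stranded by primer extension, the bound protein was detected with fluorescent anti-GST. E-scores, modified Wilcoxon-Mann-Whitney statistics, were given by the Universal PBM Analysis Suite to ungapped eight-base words pooled with their reverse complements after masliner normalisation.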
row,Sequence,PBM E-score
1,TAAGCGCA,0.0681
2,ACCAATGG,0.0227
3,CCCCAGAA,-0.0585
4,CACCCACC,0.0942
5,AAGGTATA,-0.0348
6,ATCCGCGA,0.015
7,TATGGCCA,0.0804
8,CTTAACTC,0.145
9,AGTCGACA,0.122
10,CCTCGAAA,0.069
11,AAGGAGTA,0.0703
12,CGACGTGC,0.0086
13,ATCGTCTA,-0.0715
14,CGAACTTA,0.0234
15,AATTGTCG,0.00659
16,CCAAGCCG,-0.186
17,ACCAGCAC,0.0389
18,GGCGATGA,-0.0302
19,AGCCCGAG,-0.211
20,AGAGCTCT,-0.222
21,CGGCCAGC,-0.0822
22,AATAAAGT,0.231
23,AGAGAATG,0.145
24,TCTATCAA,0.165
25,GCTATGCC,-0.272

row,Sequence,PBM E-score
1,CCCTGCTA,-0.225
2,ACTACCAG,-0.086
3,AGTCATGG,0.0852
4,CGTGTGGC,-0.259
5,CTCACACC,-0.0528
6,CATTGGTA,-0.0428
7,ATGTCCTC,-0.0332
8,CGCCTATC,0.0575
9,GCTCTTGA,-0.00938
10,ATCGCCAA,-0.0749
11,ACCATGCG,-0.0407
12,GGGTCGCA,-0.122
13,ATCCATTA,0.052
14,AGATTTGC,0.24
15,CGCATCCG,-0.0974
16,AACGCATG,0.091
17,ATACATCG,0.161
18,ACGACTAG,0.0153
19,CGCCCGCC,-0.0134
20,ACGGGGCG,0.0376
21,CATGGCGC,0.00485
22,CACGACGC,-0.163
23,AAACTCCA,0.0269
24,ATACAATC,0.162
25,AGTGCAGA,-0.078

row,Sequence,PBM E-score
1,AACAAGTT,0.0368
2,ACTCCTCA,-0.175
3,AGGTCGTA,0.109
4,AGTACAGC,-0.107
5,AAAACCGC,0.0398
6,AACGAGCT,0.037
7,AAACCTTC,-0.0587
8,CCCGACTC,-0.124
9,AGTGGAAG,-0.172
10,ATGAACTG,0.125
11,GATTGTTA,0.0642
12,CCAGTAGC,-0.0376
13,CCTCAGCG,-0.00286
14,CACCCTCC,0.0308
15,TAACTACA,0.0764
16,CAAAACAC,0.0504
17,CTGCGCAA,0.104
18,CGATCCGA,0.108
19,ACGTAGAG,-0.2
20,CTGTATGA,-0.0616
21,ACCATTCT,-0.0151
22,CACCCTGA,-0.161
23,GACAGGAA,0.00248
24,GATGGCCA,0.0224
25,ACTCCCAC,-0.14

row,Sequence,PBM E-score
1,TGATACAA,0.0618
2,GTGCGTTA,0.0527
3,CGACCTGC,-0.144
4,GTCAACGA,0.0133
5,CAGTGTGA,0.128
6,CGATGTGC,-0.125
7,AGTATCCA,-0.0426
8,ATCAAGAA,0.237
9,AAGATGAA,0.0724
10,ACCCCTAT,0.138
11,ATGCCTAG,-0.173
12,CAACCTCC,-0.104
13,TAACGCCA,-0.0425
14,TGATTACA,0.301
15,AGCTACTG,0.037
16,CGGTCGCC,-0.167
17,CTACACCC,-0.148
18,GCGGCCAC,-0.282
19,TCGCACCA,0.0804
20,GAGATTAC,0.249
21,CGCACGGA,0.0301
22,TAGCTTGA,-0.111
23,CCCTCGCG,-0.106
24,TAGTGCGA,0.0454
25,ATAATTGA,0.228

row,Sequence,PBM E-score
1,GACGAAGA,0.0861
2,CGTGTAAC,-0.00566
3,ATCCCTCC,-0.198
4,CGGTATCC,0.00257
5,TTACCCAA,0.104
6,ACCACACT,-0.0125
7,ATAAATAT,0.226
8,CTGAGGGC,-0.26
9,ATAGGAGG,-0.199
10,TGGAATAA,0.167
11,AGTGAGAA,0.0991
12,AGTACCAT,0.0488
13,GCTCGCTA,-0.0193
14,AATTCACT,0.0517
15,AGCGCGCG,0.149
16,AAACCTCG,-0.0823
17,ACAGTCCT,-0.0817
18,ATCCTCAC,0.0542
19,ATTGAAGA,0.0647
20,ATTATGCC,0.15
21,CAGACATG,-0.119
22,AGCTACCC,-0.0945
23,CGACCGTC,-0.227
24,ACAACCGA,0.214
25,AATTTTTC,0.057

# Given bar-delimited: entries from further up.
row | Sequence | PBM E-score
2 | ACTCCTCA | -0.175
3 | AGGTCGTA | 0.109
4 | AGTACAGC | -0.107
5 | AAAACCGC | 0.0398
6 | AACGAGCT | 0.037
7 | AAACCTTC | -0.0587
8 | CCCGACTC | -0.124
9 | AGTGGAAG | -0.172
10 | ATGAACTG | 0.125
11 | GATTGTTA | 0.0642
12 | CCAGTAGC | -0.0376
13 | CCTCAGCG | -0.00286
14 | CACCCTCC | 0.0308
15 | TAACTACA | 0.0764
16 | CAAAACAC | 0.0504
17 | CTGCGCAA | 0.104
18 | CGATCCGA | 0.108
19 | ACGTAGAG | -0.2
20 | CTGTATGA | -0.0616
21 | ACCATTCT | -0.0151
22 | CACCCTGA | -0.161
23 | GACAGGAA | 0.00248
24 | GATGGCCA | 0.0224
25 | ACTCCCAC | -0.14
1 | TGATACAA | 0.0618
2 | GTGCGTTA | 0.0527
3 | CGACCTGC | -0.144
4 | GTCAACGA | 0.0133
5 | CAGTGTGA | 0.128
6 | CGATGTGC | -0.125
7 | AGTATCCA | -0.0426
8 | ATCAAGAA | 0.237
9 | AAGATGAA | 0.0724
10 | ACCCCTAT | 0.138
11 | ATGCCTAG | -0.173
12 | CAACCTCC | -0.104
13 | TAACGCCA | -0.0425
14 | TGATTACA | 0.301
15 | AGCTACTG | 0.037
16 | CGGTCGCC | -0.167
17 | CTACACCC | -0.148
18 | GCGGCCAC | -0.282
19 | TCGCACCA | 0.0804
20 | GAGATTAC | 0.249
21 | CGCACGGA | 0.0301
22 | TAGCTTGA | -0.111
23 | CCCTCGCG | -0.106
24 | TAGTGCGA | 0.0454
25 | ATAATTGA | 0.228
1 | GACGAAGA | 0.0861
2 | CGTGTAAC | -0.00566
3 | ATCCCTCC | -0.198
4 | CGGTATCC | 0.00257
5 | TTACCCAA | 0.104

# Further results follow.

row,Sequence,PBM E-score
1,CGCACTCC,-0.161
2,ACCCGAAT,0.0626
3,ATCTAAAA,0.058
4,CTGATAAC,-0.054
5,AACGGACA,0.0977
6,CCTAATGC,-0.164
7,ACGGAGCC,-0.257
8,AGGCGTAC,-0.209
9,ACTGACTG,-0.104
10,TAATACTA,0.372
11,ATCCGCAC,0.135
12,CACAATCA,0.0681
13,GGATACAC,0.0415
14,ATCTTGCC,0.00777
15,AGACGCAT,0.0124
16,CCATAAAG,-0.0414
17,GACTTAGC,-0.206
18,ACTTGTAG,-0.0604
19,ACAGTGCC,-0.026
20,ACCTCGGC,0.136
21,TCCTCGAA,0.043
22,GAAAATTC,0.179
23,CGTAAGGC,-0.0166
24,TCCCCGGA,0.028
25,GAACCGCC,-0.211

row,Sequence,PBM E-score
1,CTAGTTTC,0.147
2,CAGGGGAA,-0.0178
3,CGTTCGCC,-0.133
4,ACCATAGA,0.0505
5,CTCATCGC,0.0159
6,CGTCGATC,0.15
7,GTGCATGA,-0.043
8,CTAACAAA,0.0857
9,TACACACA,0.0853
10,AACCAGTA,-0.0131
11,AAGTCTTA,0.00355
12,GTAACAAC,-0.021
13,GCTAACAA,-0.0669
14,GGCGTGCA,-0.216
15,AAACTGAT,0.0919
16,CTCAGTTC,-0.0985
17,ATAATGAG,0.149
18,CACACCTG,-0.174
19,GCCTACCA,-0.102
20,AGGCACGG,-0.0931
21,CCATGCTA,-0.21
22,ATCTGTCG,0.109
